Measured values from EPA's aquatic toxicity sets.

Key:
Pimephales promelas = assay: 96 h LC50 (-log10 mol/L); higher = more toxic
Daphnia magna = assay: 48 h LC50 (-log10 mol/L); higher = more toxic

SMILES	96 h LC50 (-log10 mol/L) (Pimephales promelas)	48 h LC50 (-log10 mol/L) (Daphnia magna)
O=C(c1ccccc1)c1ccccc1	4.09	–
O=C(O)C1=C[C@@H](O)[C@@H](O)[C@H](O)C1	–	3.18
